For the assay, the target named is 3xFLAG tagged first two domains of Ccn2/Ctgf (rat). Description: co-IP; CHO cells co-transfected with SLIT2:MYC and 3xFLAG tagged Ccn2/Ctgf or mutants; conditioned media in 1x TBS, M2 antibody-conjugated agarose 16 h; immunoblot for SLIT2 (MYC Ab in the legend).

These are yes or no findings as the source states them, for the method shown. Binding seen in cells or lysates may run through a third protein. A result given as binding can be weak or reduced; the word gives no strength. Sequences can lack the tags named with a protein.

B1: full-length human SLIT2 with MYC epitope (protein, UniProt O94813 31-1529)
chain: QCSCSGSTVDCHGLALRSVPRNIPRNTERLDLNGNNITRITKTDFAGLRHLRVLQLMENKISTIERGAFQDLKELERLRLNRNHLQLFPELLFLGTAKLYRLDLSENQIQAIPRKAFRGAVDIKNLQLDYNQISCIEDGAFRALRDLEVLTLNNNNITRLSVASFNHMPKLRTFRLHSNNLYCDCHLAWLSDWLRQRPRVGLYTQCMGPSHLRGHNVAEVQKREFVCSGHQSFMAPSCSVLHCPAACTCSNNIVDCRGKGLTEIPTNLPETITEIRLEQNTIKVIPPGAFSPYKKLRRIDLSNNQISELAPDAFQGLRSLNSLVLYGNKITELPKSLFEGLFSLQLLLLNANKINCLRVDAFQDLHNLNLLSLYDNKLQTIAKGTFSPLRAIQTMHLAQNPFICDCHLKWLADYLHTNPIETSGARCTSPRRLANKRIGQIKSKKFRCSAKEQYFIPGTEDYRSKLSGDCFADLACPEKCRCEGTTVDCSNQKLNKIPEHIPQYTAELRLNNNEFTVLEATGIFKKLPQLRKINFSNNKITDIEEGAFEGASGVNEILLTSNRLENVQHKMFKGLESLKTLMLRSNRITCVGNDSFIGLSSVRLLSLYDNQITTVAPGAFDTLHSLSTLNLLANPFNCNCYLAWLGEWLRKKRIVTGNPRCQKPYFLKEIPIQDVAIQDFTCDDGNDDNSCSPLSRCPTECTCLDTVVRCSNKGLKVLPKGIPRDVTELYLDGNQFTLVPKELSNYKHLTLIDLSNNRISTLSNQSFSNMTQLLTLILSYNRLRCIPPRTFDGLKSLRLLSLHGNDISVVPEGAFNDLSALSHLAIGANPLYCDCNMQWLSDWVKSEYKEPGIARCAGPGEMADKLLLTTPSKKFTCQGPVDVNILAKCNPCLSNPCKNDGTCNSDPVDFYRCTCPYGFKGQDCDVPIHACISNPCKHGGTCHLKEGEEDGFWCICADGFEGENCEVNVDDCEDNDCENNSTCVDGINNYTCLCPPEYTGELCEEKLDFCAQDLNPCQHDSKCILTPKGFKCDCTPGYVGEHCDIDFDDCQDNKCKNGAHCTDAVNGYTCICPEGYSGLFCEFSPPMVLPRTSPCDNFDCQNGAQCIVRINEPICQCLPGYQGEKCEKLVSVNFINKESYLQIPSAKVRPQTNITLQIATDEDSGILLYKGDKDHIAVELYRGRVRASYDTGSHPASAIYSVETINDGNFHIVELLALDQSLSLSVDGGNPKIITNLSKQSTLNFDSPLYVGGMPGKSNVASLRQAPGQNGTSFHGCIRNLYINSELQDFQKVPMQTGILPGCEPCHKKVCAHGTCQPSSQAGFTCECQEGWMGPLCDQRTNDPCLGNKCVHGTCLPINAFSYSCKCLEGHGGVLCDEEEDLFNPCQAIKCKHGKCRLSGLGQPYCECSSGYTGDSCDREISCRGERIRDYYQKQQGYAACQTTKKVSRLECRGGCAGGQCCGPLRSKRRKYSFECTDGSSFVDEVEKVVKCGCTRCVS
Turning to B1, the binding result was “binds weakly”.

Source of the values: PMC10030765.
